For the assay, the target named is T1, transcription factor P73 (human (endogenous in HPMEC)) (UniProt O15350).
T1 sequence: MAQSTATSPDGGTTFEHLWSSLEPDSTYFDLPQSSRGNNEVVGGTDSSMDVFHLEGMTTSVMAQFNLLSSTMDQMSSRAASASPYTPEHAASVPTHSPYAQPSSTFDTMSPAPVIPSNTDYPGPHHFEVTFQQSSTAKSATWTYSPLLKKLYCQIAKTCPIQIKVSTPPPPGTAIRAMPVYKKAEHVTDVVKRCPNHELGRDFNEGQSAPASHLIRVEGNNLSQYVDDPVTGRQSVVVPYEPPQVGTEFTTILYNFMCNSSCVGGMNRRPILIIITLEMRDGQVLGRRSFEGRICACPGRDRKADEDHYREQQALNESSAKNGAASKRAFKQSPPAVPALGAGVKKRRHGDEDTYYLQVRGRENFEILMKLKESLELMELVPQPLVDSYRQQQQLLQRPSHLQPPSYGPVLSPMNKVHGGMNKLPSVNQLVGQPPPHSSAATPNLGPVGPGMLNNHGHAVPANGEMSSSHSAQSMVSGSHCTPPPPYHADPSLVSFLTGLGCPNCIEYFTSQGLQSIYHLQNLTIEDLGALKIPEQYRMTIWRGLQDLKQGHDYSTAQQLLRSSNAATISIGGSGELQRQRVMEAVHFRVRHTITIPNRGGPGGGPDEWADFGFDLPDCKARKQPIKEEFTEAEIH
Put plainly: co-IP; HPMEC lysed in RIPA+PMSF with protease inhibitor cocktail; extracts incubated overnight with P73 antibody, 2 h with protein A agarose beads, washed three times; blot with anti-phospho-YAP (Y357); cells stimulated with LPS and CHX for the indicated times or untreated.

Chains of the proteins cited; added tags and fusions are not shown.
UniProt P46937: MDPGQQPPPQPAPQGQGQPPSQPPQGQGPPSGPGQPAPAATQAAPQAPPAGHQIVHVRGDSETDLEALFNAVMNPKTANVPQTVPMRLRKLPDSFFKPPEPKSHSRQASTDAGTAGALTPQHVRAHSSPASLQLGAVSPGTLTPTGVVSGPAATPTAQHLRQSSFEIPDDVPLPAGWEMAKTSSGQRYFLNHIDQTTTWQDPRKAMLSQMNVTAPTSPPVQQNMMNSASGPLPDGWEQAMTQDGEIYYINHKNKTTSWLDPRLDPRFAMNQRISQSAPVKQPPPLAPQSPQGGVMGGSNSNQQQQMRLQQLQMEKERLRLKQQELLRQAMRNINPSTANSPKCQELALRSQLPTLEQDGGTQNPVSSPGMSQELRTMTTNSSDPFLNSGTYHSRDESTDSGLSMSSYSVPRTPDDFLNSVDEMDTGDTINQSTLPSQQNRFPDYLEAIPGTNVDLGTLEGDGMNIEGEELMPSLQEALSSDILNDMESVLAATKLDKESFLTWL

No constants are given. Whether binding was seen depends on the method and setting. In cells and extracts the contact can be indirect. Some results given as binding are weak or reduced against the parent protein; the word gives no strength.

Take “Yes-associated protein phosphorylated on Y357 (from UniProt P46937 1-504)”: the binding result was “binds”.

Values taken from paper PMC5069405.
